One assay deals with mGFP-BAZ2AWT (UniProt Q91YE5). Put plainly: co-IP; GFP-Trap magnetic agarose on MNase-digested nuclear extract (200 mM NaCl) of ESC lines, overnight at 4°C; BAZ2A detected with BAZ2A antibodies.
Another assay concerns the target F/H-BAZ2A (HEK293T) (UniProt Q91YE5). Put plainly: co-IP; IP from co-transfected HEK293T cells (Figures S1J, S1L); which tag was precipitated is not given.
The target in another assay is T1, recombinant mGFP-BAZ2AN (UniProt Q91YE5).
T1 sequence: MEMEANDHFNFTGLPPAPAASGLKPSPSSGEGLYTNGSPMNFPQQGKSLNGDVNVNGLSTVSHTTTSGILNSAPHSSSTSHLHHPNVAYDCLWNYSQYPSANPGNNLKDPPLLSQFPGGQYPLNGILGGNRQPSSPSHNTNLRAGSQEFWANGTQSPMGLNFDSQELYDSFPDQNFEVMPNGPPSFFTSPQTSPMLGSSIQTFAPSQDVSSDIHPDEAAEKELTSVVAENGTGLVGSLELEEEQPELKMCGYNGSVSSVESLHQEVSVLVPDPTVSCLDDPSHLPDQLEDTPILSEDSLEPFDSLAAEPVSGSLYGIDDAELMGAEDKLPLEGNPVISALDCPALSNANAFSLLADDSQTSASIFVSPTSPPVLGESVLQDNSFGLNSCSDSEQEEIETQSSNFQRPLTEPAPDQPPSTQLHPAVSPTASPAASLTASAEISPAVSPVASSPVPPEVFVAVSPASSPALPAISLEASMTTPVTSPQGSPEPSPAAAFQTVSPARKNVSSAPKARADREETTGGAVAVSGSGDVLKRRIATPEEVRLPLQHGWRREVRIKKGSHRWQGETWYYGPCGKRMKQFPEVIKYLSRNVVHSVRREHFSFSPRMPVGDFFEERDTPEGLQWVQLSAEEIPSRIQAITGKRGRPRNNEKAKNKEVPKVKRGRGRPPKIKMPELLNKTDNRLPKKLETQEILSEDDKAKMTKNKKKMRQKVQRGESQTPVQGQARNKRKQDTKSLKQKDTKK
Put plainly: co-sedimentation; droplets of 20 μg recombinant protein formed in 30 μg ESC nuclear extract with 1% PEG8000, 30 min at room temperature, pelleted at 10,000xg; pellet analysed by mass spectrometry; only the target purified.

Amino acid sequences for entries named in this document (tags omitted).
UniProt Q8K2F0: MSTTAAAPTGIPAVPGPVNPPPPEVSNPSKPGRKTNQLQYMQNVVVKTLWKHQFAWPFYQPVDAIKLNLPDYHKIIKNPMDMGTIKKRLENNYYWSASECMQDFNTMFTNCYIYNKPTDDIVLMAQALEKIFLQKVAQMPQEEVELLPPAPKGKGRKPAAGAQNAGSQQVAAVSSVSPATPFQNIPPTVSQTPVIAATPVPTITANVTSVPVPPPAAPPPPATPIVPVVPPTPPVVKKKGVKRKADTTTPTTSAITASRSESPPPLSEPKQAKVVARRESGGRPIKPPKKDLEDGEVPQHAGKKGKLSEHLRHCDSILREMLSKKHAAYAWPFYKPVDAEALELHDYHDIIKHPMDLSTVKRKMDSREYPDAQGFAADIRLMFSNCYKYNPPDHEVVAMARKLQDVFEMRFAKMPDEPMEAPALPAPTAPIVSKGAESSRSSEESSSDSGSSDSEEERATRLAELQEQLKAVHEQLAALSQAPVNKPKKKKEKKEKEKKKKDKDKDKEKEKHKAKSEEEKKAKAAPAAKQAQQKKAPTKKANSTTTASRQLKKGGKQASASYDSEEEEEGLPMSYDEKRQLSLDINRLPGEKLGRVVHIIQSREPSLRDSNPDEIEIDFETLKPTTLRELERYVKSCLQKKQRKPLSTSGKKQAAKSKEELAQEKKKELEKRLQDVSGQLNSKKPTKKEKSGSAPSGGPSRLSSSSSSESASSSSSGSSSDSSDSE

Assay [1] concerns the target recombinant BAZ2AN (UniProt Q91YE5). Put plainly: native gel or EMSA; SEC fractions on non-denaturing PAGE (no SDS) compared with denaturing PAGE; silver staining; both purified. Background: Mobility shift assays separate free from complexed probe on a gel.
Assay [2] has the same target. Put plainly: negative-stain electron microscopy; SEC fraction of BAZ2AN corresponding to >600 kDa, 2% uranyl acetate, 120 kV Tecnai Spirit; both purified.
The target of the next assay is T2, GST-BAZ2A_(N/WT) (UniProt Q91YE5).
T2 sequence: T1 sequence
Put plainly: pull-down; GST-tagged protein on Glutathione Sepharose 4B beads, pre-cleared mGFP-tagged protein added in AM200 buffer (200 mM KCl) for 4 h at 4°C; washes with 300 mM NaCl, 0.5% NP-40; blots with GST and GFP antibodies; both purified.

Another assay deals with T3, F/H-BAZ2AN (UniProt Q91YE5).
T3 sequence: T1 sequence
Put plainly: co-IP; anti-HA magnetic beads on MNase-digested nuclear extract (200 mM NaCl) of co-transfected HEK293T cells, overnight at 4°C; Western blot. Background: A western blot detects proteins with antibodies after separation by electrophoresis.

Results are given in words; binding and its absence hold for the method and conditions named. For some assays here: Binding seen in cells or lysates may run through a third protein. Some results given as binding are weak or reduced against the parent protein; the word gives no strength. For some assays here: Tags and fused reporters may be left off the sequences shown.

Results on seven molecules are retold here after publication PMC11065421, “An RNA-dependent and phase-separated active subnuclear compartment safeguards repressive chromatin domains” (Molecular Cell, 2024).

“endogenous BAZ2A (from UniProt Q91YE5 1-1889)”: the binding entry in the assay with mGFP-BAZ2AWT is recorded as “binds”.

Consider “mGFP-BAZ2A (HEK293T) (from UniProt Q91YE5 1-1889)”, for which, in the assay with F/H-BAZ2A (HEK293T), the binding result is “binds”.

In the case of BRD3 (from UniProt Q8K2F0 1-726), the binding entry in the assay with recombinant mGFP-BAZ2AN is recorded as “binds”.

B1: RAD21 (protein, UniProt Q61550 1-635)
chain: MFYAHFVLSKRGPLAKIWLAAHWDKKLTKAHVFECNLESSVESIISPKVKMALRTSGHLLLGVVRIYHRKAKYLLADCNEAFIKIKMAFRPGVVDLPEENREAAYNAITLPEEFHDFDQPLPDLDDIDVAQQFSLNQSRVEEITMREEVGNISILQENDFGDFGMDDREIMREGSAFEDDDMLVSTSASNLLLEPEQSTSNLNEKMNHLEYEDQYKDDNFGEGNDGGILDDKLISNNDGGIFDDPPALSEAGVMLPEQPAHDDMDEDDNGSLGGPDSPDSVDPVEPMPTMTDQTTLVPNEEEAFALEPIDITVKETKAKRKRKLIVDSVKELDSKTIRAQLSDYSDIVTTLDLAPPTKKLMMWKETGGVEKLFFLPAQPLWNNRLLKLFTRCLTPLVPEDLRKRRKGGEADNLDEFLKEFENPEVPREEQQPQQQQPQPQRDVIDEPIIEEPSRLQDSVMEASRTTIEESAMPPPPPQGVKRKAGQIDPEPSIPPQQVEQMEIPPVELPPEEPPNICQLIPELELLPEKEKEKEKEKEEEEEEEDEDASGGDQDQEERRWNKRTQQMLHGLQRALAKTGAESISLLELCRNTNRKQAAAKFYSFLVLKKQQAIELTQEEPYSDIIATPGPRFHII
As to B1, the binding result with recombinant mGFP-BAZ2AN is “binds”.

B2: recombinant BAZ2AN (domain or fragment, UniProt Q91YE5 1-744, looked up)
chain: T1 sequence
notes: BAZ2A (TIP5) N-terminal region, aa 1-744; also called BAZ2AN-Hist; source: E. coli BL21(DE3), purified (Glutathione Sepharose, PreScission cleavage, HisTrap)
Take B2: the binding result with recombinant BAZ2AN [1] and in the assay with recombinant BAZ2AN [2] was “binds” in each case.

B3: recombinant mGFP-BAZ2AN (domain or fragment, UniProt Q91YE5 1-744)
chain: T1 sequence
With B3, in the assay with GST-BAZ2A_(N/WT), the binding entry is “binds”.

B4: mGFP-BAZ2AN (domain or fragment, UniProt Q91YE5 1-744)
chain: T1 sequence
Regarding B4, the binding entry with F/H-BAZ2AN is “binds”.
